For 3 molecules, binding results are on record in patent US20170002083A1.

By UniProt entry, the sequences of proteins in these tests, tags left out. Where a name states a change or a piece, a line headed by the entry shows the natural chain unless it says otherwise.
UniProt P23510: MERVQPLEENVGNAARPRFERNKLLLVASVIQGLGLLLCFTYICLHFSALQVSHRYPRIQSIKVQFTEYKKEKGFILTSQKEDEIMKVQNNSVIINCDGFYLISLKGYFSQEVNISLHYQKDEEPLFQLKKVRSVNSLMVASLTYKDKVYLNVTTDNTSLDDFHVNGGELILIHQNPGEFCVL

No constants are given. Whether binding was seen depends on the method and setting. Some binding calls cover weakened binding; strength is not graded here.

Sequences and labels used below:
B1: 10A07 (hybridoma) (antibody, V domains shown)
VH: EVQLVESGGVLVQPGGSLRLSCAASGFTFSSYIMTWVRQAPGKGLEWVSGISGSGGGTYYADSMKGRFTISRDNSKNTLYLQMNSLRVEDTAVYYCAKDRLGPITLVRGGYYYGMDVWGQGTTVTVSS
VL: DIQMTQSPSSLSASVGDRVTITCRASQSISDYLNWYQQKPGKAPKFLIYAASSLQSGVPSRFSGSGSGTDFTLTVSSLQPEDFATYYCQQSYSTPRTFGQGTRVEIK
B2: 9H04 (hybridoma) (antibody, V domains shown)
VH: QVQLVESGGGLVKPGGSLRLSCAASRFTLSDYYMTWIRQAPGKGLEWVSYISSSGNTIYYADSVKGRFTISRDNAKNSLYLQMNSLRAEDTAVYYCARDLSGSYWDYYYGMDVWGQGTTVTVSS
VL: AIQLTQSPSSLSTSVGDRVTIACRASQGINNALAWYQQKPGKAPKLLIYDASSLESGVPSRFSGSGSGTDFTLTISSLQPEDFATYYCQQFNSYPRTFGQGTKVEIK
B3: 2D10 (hybridoma) (antibody, V domains shown)
VH: EVQLVESGGGLVQPGGSLRLSCAASGFTFSNYAMNWVRQAPGKGLEWVSTISGSGGATRYADSVKGRFTISRDNSRNTVYLQMNSLRVEDTAVFYCTKDRLIMATVRGPYYYGMDVWGQGTTVTVSS
VL: DIQMTQSPSSLSASVGDRVTITCRASQSISSYLNWYQQKPGKAPNLLIYAASSLQSGVPSRFSGSGSETDFTLTISSLQPEDFATYYCQQSHSVSFTFGPGTKVDIK

The experiment addresses Cell Expressed OX40L (CHO/MEF) (human) (UniProt P23510). Description: flow cytometry on CHO-S cells expressing hOX40L (column FACS Binding). Background: Flow cytometry measures light scatter and fluorescence of single cells or particles in a stream.
Regarding B1, the binding result is recorded as “binds”.
B2: the binding result was “binds”.
The same measure for B3: “binds”.
